The supplement of paper PMC3334620
The full ranking holds about 33,000 sequences; the median of “E-score (-0.5 to 0.5)” is about -0.0014, and the highest 2% start at about 0.25. Some of the results follow.

What follows are sequences tested against T1, Cad1 (UniProt P24813) (assay: PBM E-score (8-mer binding enrichment) (E-score (-0.5 to 0.5)); higher = stronger / more preferred TF binding). Conditions: protein concentration: 100 nM; construct: GST-full length.
T1 sequence: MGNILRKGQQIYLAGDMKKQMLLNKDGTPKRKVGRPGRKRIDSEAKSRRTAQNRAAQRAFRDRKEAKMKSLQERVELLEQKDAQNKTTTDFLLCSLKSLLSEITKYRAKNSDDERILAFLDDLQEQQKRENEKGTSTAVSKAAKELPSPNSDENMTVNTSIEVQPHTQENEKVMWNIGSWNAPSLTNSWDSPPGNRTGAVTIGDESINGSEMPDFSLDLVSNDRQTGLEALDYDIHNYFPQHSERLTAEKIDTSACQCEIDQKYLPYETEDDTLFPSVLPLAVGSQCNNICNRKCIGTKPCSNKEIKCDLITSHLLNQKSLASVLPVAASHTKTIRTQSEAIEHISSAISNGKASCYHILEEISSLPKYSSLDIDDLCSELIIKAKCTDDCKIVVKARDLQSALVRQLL
In short: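 For each ungapped eight-base word taken together with its reverse complement, the Universal PBM Analysis Suite assigned an E-score. Binding data came from GST-tagged yeast transcription factors, applied at about 100-200 nM, on universal all-10-mer Agilent arrays made double-stranded by primer extension. Fluorescent anti-GST marked bound protein, and scans were normalised with masliner.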

| Sequence | PBM E-score |
| --- | --- |
| GGCTCTTA | -0.143 |
| GTACCAAA | -0.018 |
| GGGTTGTA | -0.0992 |
| CGAGGACG | 0.052 |
| ATGGATCC | 0.0803 |
| GATTCGAC | -0.0892 |
| ATGGGGTA | 0.0733 |
| TCGGAAGA | -0.114 |
| TCCATCGA | 0.0896 |
| TGCGCGAA | 0.244 |
| CAATACCA | 0.126 |
| TCTACTAA | 0.0958 |
| GGTAGAGA | 0.0486 |
| AAATCGCG | 0.137 |
| CTCATCTC | 0.14 |
| GCGCGCAC | 0.218 |
| CGGTGACG | 0.00864 |
| GGCATGAC | -0.0834 |
| TACTAATA | 0.285 |
| ATAACTAT | 0.0761 |
| CGTGTGTA | 0.0544 |
| CACTTTTA | -0.0571 |
| AATGCGTG | 0.0367 |
| AATCCGGA | 0.306 |
| CGCCTCAA | -0.122 |

| Sequence | PBM E-score |
| --- | --- |
| ACGCCGCC | -0.223 |
| AGTGAGTA | 0.201 |
| AACGCGAA | 0.298 |
| GTCGAGTA | 0.0726 |
| GTTAGACA | 0.23 |
| AAAAAGGT | -0.0335 |
| AAGTAACA | 0.0629 |
| GCCTTGAC | -0.0488 |
| CCGCTGAA | 0.0611 |
| CCTGCTCA | -0.147 |
| ACTACGAG | -0.137 |
| ACTCATAC | 0.149 |
| CTTAGACA | -0.076 |
| AAGGTCTA | -0.163 |
| AATCGCAT | 0.0873 |
| TATTTGAA | 0.101 |
| CCAACACA | 0.0731 |
| ATTGAAGC | 0.0235 |
| CCTTAGCG | 0.072 |
| GCCCAGAA | -0.0791 |
| CTAGTAGC | -0.0333 |
| CCAGCGGC | -0.0709 |
| CGGAGGCA | -0.0295 |
| CGACAGAC | -0.0603 |
| GTAACTAC | 0.17 |

Reprinted from the results shown (36 entries):

| Sequence | PBM E-score |
| --- | --- |
| CTCATCTC | 0.14 |
| GCGCGCAC | 0.218 |
| CGGTGACG | 0.00864 |
| GGCATGAC | -0.0834 |
| TACTAATA | 0.285 |
| ATAACTAT | 0.0761 |
| CGTGTGTA | 0.0544 |
| CACTTTTA | -0.0571 |
| AATGCGTG | 0.0367 |
| AATCCGGA | 0.306 |
| CGCCTCAA | -0.122 |
| ACGCCGCC | -0.223 |
| AGTGAGTA | 0.201 |
| AACGCGAA | 0.298 |
| GTCGAGTA | 0.0726 |
| GTTAGACA | 0.23 |
| AAAAAGGT | -0.0335 |
| AAGTAACA | 0.0629 |
| GCCTTGAC | -0.0488 |
| CCGCTGAA | 0.0611 |
| CCTGCTCA | -0.147 |
| ACTACGAG | -0.137 |
| ACTCATAC | 0.149 |
| CTTAGACA | -0.076 |
| AAGGTCTA | -0.163 |
| AATCGCAT | 0.0873 |
| TATTTGAA | 0.101 |
| CCAACACA | 0.0731 |
| ATTGAAGC | 0.0235 |
| CCTTAGCG | 0.072 |
| GCCCAGAA | -0.0791 |
| CTAGTAGC | -0.0333 |
| CCAGCGGC | -0.0709 |
| CGGAGGCA | -0.0295 |
| CGACAGAC | -0.0603 |
| GTAACTAC | 0.17 |

The list continues:

| Sequence | PBM E-score |
| --- | --- |
| AAATCTCT | -0.00298 |
| GCGCCTTA | 0.192 |
| AACCACAA | 0.00676 |
| CGAAGCCA | -0.0254 |
| AGGTACAA | 0.03 |
| ATTCCGAC | -0.0345 |
| AACTGAGG | 0.0639 |
| GGTGAACA | -0.154 |
| AATGACTG | 0.0578 |
| AGCAATTA | 0.0458 |
| CCTGGACG | -0.0668 |
| AACTAGGT | 0.0673 |
| ACGTTCCA | 0.0384 |
| ACGCAATC | 0.0413 |
| CTTGGCTA | 0.134 |
| ATGCCGAA | 0.0888 |
| ACGTTGCA | 0.0237 |
| GAAGACGA | -0.0447 |
| ATTCGAAT | 0.132 |
| CCACCCTC | 0.0947 |
| CCCAGGAA | -0.104 |
| GACCCCGC | -0.0512 |
| ACTATTTG | 0.101 |
| AGTGGACG | 0.0569 |
| AACCTGTA | -0.019 |

| Sequence | PBM E-score |
| --- | --- |
| CAAAGGAA | 0.0936 |
| AAGTCTAT | -0.191 |
| CATTTGGG | -0.0702 |
| CTGGGGTC | -0.164 |
| CGCTATTA | 0.253 |
| AGGTATCG | 0.161 |
| CGTTGTAG | 0.111 |
| AACGCTTA | 0.021 |
| TATGCGAA | 0.161 |
| AAGAGGTA | -0.0197 |
| GACATCTC | 0.0236 |
| ACCGTCAC | -0.176 |
| CTTAGGCA | -0.00969 |
| CATGTAAC | 0.0311 |
| TAGAGTGA | -0.0446 |
| CCCCACTC | -0.201 |
| AGCTGGCG | -0.231 |
| ACCTGCTC | -0.0212 |
| ACCAGATA | 0.208 |
| AGACTAAT | 0.00954 |
| CACCAATA | -0.0376 |
| CGCACGTC | -0.0553 |
| GCAATTCA | 0.0205 |
| GAGCCGTA | 0.203 |
| TAGCCAAA | -0.00044 |

| Sequence | PBM E-score |
| --- | --- |
| ATATTGCA | 0.108 |
| TGACCCAA | 0.13 |
| CTCTAGTC | -0.388 |
| ATTATACC | 0.1 |
| CCTAGCGC | 0.0836 |
| AACACACT | 0.165 |
| CAACCGTC | -0.00819 |
| ACTTTCAC | 0.0546 |
| GCCTTCAA | 0.0307 |
| ATATCGCC | 0.0776 |
| AGTGCATG | -0.00125 |
| ACAAAGCT | 0.124 |
| AAAGTACG | -0.038 |
| GTCATACA | 0.148 |
| GTTTGATA | 0.141 |
| CGCAATTA | 0.092 |
| AATAGTAG | 0.185 |
| ACACATTA | 0.123 |
| ACGCATAA | 0.144 |
| GGCCCTCA | -0.326 |
| AGCCCTGG | -0.211 |
| GCCACTAC | -0.117 |
| GCAACGGC | 0.0742 |
| CTTTCGAC | -0.128 |
| ATACGGGG | -0.164 |

| Sequence | PBM E-score |
| --- | --- |
| GGCACGTA | -0.035 |
| AGTCGGAG | -0.129 |
| AGCTGGCA | 0.0357 |
| AGGGGGTA | -0.405 |
| CCTTGCGA | 0.0326 |
| ATCAGAAC | 0.0354 |
| AAACTGGC | -0.13 |
| AATCTGTG | 0.13 |
| AACTAGCG | 0.0415 |
| CCAAGCAG | -0.0965 |
| AGGCGTGG | -0.319 |
| AACCAGTC | -0.111 |
| CTCATGAC | -0.0193 |
| AGACGGCG | 0.0855 |
| CTCGCGAC | 0.15 |
| CCAAGACA | 0.177 |
| TACGGGCA | -0.111 |
| ACGCACAT | 0.0418 |
| ATAGATAG | -0.108 |
| AGTCTTTA | -0.142 |
| AGTATCAT | 0.133 |
| ATTCCTCA | 0.0519 |
| ACACGTCA | 0.00866 |
| CCGAAACA | 0.0714 |
| CTTGACTA | 0.175 |

| Sequence | PBM E-score |
| --- | --- |
| AGCTGGAA | -0.0891 |
| CCATTGAA | 0.159 |
| CTATCAGC | 0.107 |
| GTCGGCTA | 0.048 |
| GGATCGTA | -0.0815 |
| CTAACCCC | -0.267 |
| GAGGGATA | -0.196 |
| ACACTCCA | 0.02 |
| ATTACGTG | 0.163 |
| CGCTTACG | 0.242 |
| GGATCTAA | -0.182 |
| CCGTGGAG | -0.127 |
| CCTGCCCA | -0.0659 |
| CAGTCCGA | 0.047 |
| CCCTCATC | -0.187 |
| CTGTAAAG | -0.113 |
| CATGCGAA | 0.0648 |
| ACGCCAAT | 0.11 |
| CCTCGCAG | -0.146 |
| AATAGACG | 0.0192 |
| ATTGTGAG | -0.0176 |
| CTACTGCA | -0.159 |
